Data published in patent US20230406922A1.
Results are given in words; binding and its absence hold for the method and conditions named. Some entries that bind do so weakly or less than the wild type.

Target: cynomolgus monkey CD19 on peripheral blood B cells (cynomolgus monkey (Macaca fascicularis))
Assay: FACS on cynomolgus monkey PBMC, gated on CD20-positive B cells

binding: binds
B1: FMC63.25-mIgG1 (antibody, V domains shown)
VH: EVTLKESGPVLVKPTETLTLTCTVSGFSLSDYGVSWIRQPPGKALEWLAVIWGSETTYYNSALKSRLTISKDTSKSQVVLTMTNMDPVDTATYYCAKHYYYGGSYAMDYWGQGTTVTVSS
VL: DIQMTQSPSSLSASVGDRVTITCRASQDISKYLNWYQQKPGGAVKLLIYHTSRLHSGVPSRFSGSGSGTDYTLTISSLQPEDFATYYCQQGNTLPYTFGGGTKVEIKR
